The text below walks through data of publication PMC7819943, “Rice protein-binding microarrays: a tool to detect cis-acting elements near promoter regions in rice”.

This is one part of the list.

This assay has as its target T1, OsSMF1 (Oryza sativa, UniProt Q6ZLB0 1-436).
T1 sequence: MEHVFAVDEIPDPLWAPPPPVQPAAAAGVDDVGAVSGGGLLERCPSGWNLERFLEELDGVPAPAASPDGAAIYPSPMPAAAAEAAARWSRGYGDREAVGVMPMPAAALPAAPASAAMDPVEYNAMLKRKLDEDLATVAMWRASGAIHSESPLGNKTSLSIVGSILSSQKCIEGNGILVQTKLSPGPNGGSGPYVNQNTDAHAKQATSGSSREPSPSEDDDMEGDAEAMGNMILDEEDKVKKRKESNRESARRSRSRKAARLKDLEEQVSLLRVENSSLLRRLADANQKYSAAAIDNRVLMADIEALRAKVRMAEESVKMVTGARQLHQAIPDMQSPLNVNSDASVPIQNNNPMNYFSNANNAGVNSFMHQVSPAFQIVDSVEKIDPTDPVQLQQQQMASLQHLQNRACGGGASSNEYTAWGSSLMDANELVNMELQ
Put plainly: protein-binding microarray (RPBM); PBS, 2% BSA, 51.3 ng/ul salmon testes DNA, 50 uM zinc acetate, 200 nM TF, 25 C, 1 h; high values mean tight binding. The note with it: protein: recombinant; tags: N-terminal polyhistidine and DsRed monomer fusion (pET32a); chain copies: 2; label: CyDye5-dUTP incorporated in the synthesized complementary strand; 3' TTTTT single-stranded linker to array surface; dsDNA, one strand shown. The procedure, abridged: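 Binding signal is reported as fluorescence intensity per feature (arbitrary units) from an Axon 4000B scanner. Incubation used 200 nM of each Ni–NTA-purified, N-terminally polyhistidine- and DsRed-fused transcription factor from E. coli BL21-CodonPlus on a double-stranded custom Agilent array for 1 h at 25 °C, with 50 µM zinc acetate in the buffer, followed by washing.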
Turning to “CGGCCCATGCCCGATCCATATCCAGACCCAATACGAAGTTCGGAGTCACCTAGTGCAG”, the binding signal is 12500 fluorescence intensity (a.u.). Turning to “TGTTCGAACTGACGTGGTAGTACTACGTCGTCGCGGCCTTCGGAGTCACCTAGTGCAG”, the binding signal is 11800 fluorescence intensity (a.u.). The figure for “TGTTTAATAATAAATTTAGTAACATCAATTTTACATGATTCGGAGTCACCTAGTGCAG” is 46100 fluorescence intensity (a.u.); for “GCACTTCCGGTATCTACAGCGTCGACACCTATTTGCTGTTCGGAGTCACCTAGTGCAG” it is 4780 fluorescence intensity (a.u.). The result for “GCAACTTATCATGATCGTGACCGCAAAACAGCGGCGAGTTCGGAGTCACCTAGTGCAG” reads 3150 fluorescence intensity (a.u.). On to “CGCATCATCCGCCCGTACACGTGTCCTGCATCGACGGCGCCGGAGTCACCTAGTGCAG”, for which the binding signal is 7430 fluorescence intensity (a.u.). The figure for “CTTACCATGTAGAAGGTGATACTTGCGAGGTATCGGACGACGGAGTCACCTAGTGCAG” is 24600 fluorescence intensity (a.u.); for “CTACGACCACGTCCCCGGCCGCAGCCTCTTCCACCTCCTCCGGAGTCACCTAGTGCAG” it is 3870 fluorescence intensity (a.u.); for “GATTTATTTTATCATTACGTGTACTTAAAAGCATGGCTTACGGAGTCACCTAGTGCAG” it is 6750 fluorescence intensity (a.u.). The figure for “GTGTGAACTAAACACAGCCCAATTGTGACAAGTATCACGGCGGAGTCACCTAGTGCAG” is 3420 fluorescence intensity (a.u.); for “CGGAAGTCGTCTTCTCCTATCACCCTGGGAATGACTCAATCGGAGTCACCTAGTGCAG” it is 4250 fluorescence intensity (a.u.). The figure for “AATGCGTGGCTTTACCTGACGCGTGCGTGGCTTCCGTGCACGGAGTCACCTAGTGCAG” is 12200 fluorescence intensity (a.u.); for “GCGCTCGCCGTCGTGGCGCCGGCCGCCGTGGCCTCACGCTCGGAGTCACCTAGTGCAG” it is 4360 fluorescence intensity (a.u.). For “AAGCGAGCGATGAGTCATATCATTATCTTTCTAGCCTGCTCGGAGTCACCTAGTGCAG”, the binding signal is 7530 fluorescence intensity (a.u.).

Regarding “CAAAGCTGGGACCTGGGTGAGATCTGCGAAGTCAGCAGAGCGGAGTCACCTAGTGCAG”, the binding signal was 8070 fluorescence intensity (a.u.). The figure for “CGGTGGGTCGTCCTCAGAAGGACACGTGTCCCCACCCCTCCGGAGTCACCTAGTGCAG” is 9760 fluorescence intensity (a.u.); for “GGGAGTATATATTTCCACGCTGCCCTTTAGTATACACCTCCGGAGTCACCTAGTGCAG” it is 3510 fluorescence intensity (a.u.); for “ATATTTTGGGCCTGTTTGGCACAGCTCCAGCTCCACCCCTCGGAGTCACCTAGTGCAG” it is 3560 fluorescence intensity (a.u.). The result for “CAATCCTCCACGTCGCCGCGCGGCTCGCGATCCGAACGCCCGGAGTCACCTAGTGCAG” reads 5740 fluorescence intensity (a.u.); that for “CTCGCTCGCCTGCCTCCCCACCTCACCAGCTCACCCCACGCGGAGTCACCTAGTGCAG”, 4810 fluorescence intensity (a.u.).

As to “TGTCATATAAATGCCACGTCAAACACCACGTTGGACGATGCGGAGTCACCTAGTGCAG”, the binding signal was 19700 fluorescence intensity (a.u.). The figure for “GCCGCGCGCACGCGACGGGTTTGGGTCGAAACGGACGTCGCGGAGTCACCTAGTGCAG” is 4190 fluorescence intensity (a.u.); for “CGTCTGCTTTTCAAAATATTAAACTTCTCGAACAAATTATCGGAGTCACCTAGTGCAG” it is 17700 fluorescence intensity (a.u.); for “AAGTGTGTCCCTGTATTACTTACACGTGTGGCGTGTGTAACGGAGTCACCTAGTGCAG” it is 5770 fluorescence intensity (a.u.). With “TCCACTAACGATTAATATCTAGGTTTTATTTTAGAGTGTGCGGAGTCACCTAGTGCAG”, the binding signal is 36600 fluorescence intensity (a.u.).

In the case of “ACAATGTAACCATACAACATTCTTCAGCATCATGAATCAGCGGAGTCACCTAGTGCAG”, the binding signal was 3230 fluorescence intensity (a.u.). The figure for “ACGGCTGTACGTCCTGCGTGTCCTCTTCTTGGGCGGCGGCCGGAGTCACCTAGTGCAG” is 4120 fluorescence intensity (a.u.); for “ACAAAGATGCTGCTAAAAGTGTCAGCACCGATTTCAGTCGCGGAGTCACCTAGTGCAG” it is 3360 fluorescence intensity (a.u.). The figure for “ATTGTTATTAGTGTACGGTGACATAATATCTAGTCACAACCGGAGTCACCTAGTGCAG” is 6600 fluorescence intensity (a.u.); for “CCAACCCATCTCCACCGTCCATCTCCATCCGACGCCTCCCCGGAGTCACCTAGTGCAG” it is 24300 fluorescence intensity (a.u.). As to “TGCTGACAAGTGGGACCCACAAGTTGACTCAGCTGCCATGCGGAGTCACCTAGTGCAG”, the binding signal is 7210 fluorescence intensity (a.u.).

As to “CTTCAGGTGGTAGGACGCGCGGACTATAGGTAACGTGGCGCGGAGTCACCTAGTGCAG”, the binding signal was 3360 fluorescence intensity (a.u.). The figure for “TCAGCCGATCCGCGACATTCCTGTCCGGGTGAGTCCAACCCGGAGTCACCTAGTGCAG” is 3530 fluorescence intensity (a.u.); for “AAACATCACAGTACAGCGCGTTGCCACGTCCCGCTTACTGCGGAGTCACCTAGTGCAG” it is 9170 fluorescence intensity (a.u.); for “GATTAGGGCTGCTAAAATCGTTTAGATGTTGACAGCACGGCGGAGTCACCTAGTGCAG” it is 3860 fluorescence intensity (a.u.). The figure for “TGGCCTATCTCTTCACACGTTGACGCGACCACGTTGACGCCGGAGTCACCTAGTGCAG” is 3450 fluorescence intensity (a.u.). The figure for “TAAGCTCATTGTTCATGTGACGTATACGAACATCTCAGTACGGAGTCACCTAGTGCAG” is 4540 fluorescence intensity (a.u.); for “CAAACAGGTAACAAATTTCTATCTTTAATTTTGATATTTACGGAGTCACCTAGTGCAG” it is 24200 fluorescence intensity (a.u.); for “GATCTAATCGATGACACCAATCATGATACTCCCTACATAACGGAGTCACCTAGTGCAG” it is 3950 fluorescence intensity (a.u.). “AGAGAGAGGCAGATGGCATGGAGAGGTGTTGCAATGTGCACGGAGTCACCTAGTGCAG”: the binding signal is 3200 fluorescence intensity (a.u.). The figure for “TATCGGGTGGAGTTGGCTAAATCTGTGCCATTCGGCATACCGGAGTCACCTAGTGCAG” is 3260 fluorescence intensity (a.u.). The result for “CATCGGCCCACATCACCAGTGATGGTTGTGTCCTCCGACCCGGAGTCACCTAGTGCAG” reads 4600 fluorescence intensity (a.u.); that for “GTTGTTGATGTGATTGTGTGTATTCAAGTAGAGATTGGGTCGGAGTCACCTAGTGCAG”, 3240 fluorescence intensity (a.u.); that for “CGCTGAGGCGCCCTAACGCCGCCGTCTCCGGCCGCGCGACCGGAGTCACCTAGTGCAG”, 13000 fluorescence intensity (a.u.). The result for “GTTTTGTTCAACAAAGCAGCTGAGTCAGCACAGGACCCACCGGAGTCACCTAGTGCAG” reads 15200 fluorescence intensity (a.u.); that for “CCACTTGATCGAGGTGGCGCCCGCCGGTGCACGTGTCCGCCGGAGTCACCTAGTGCAG”, 3790 fluorescence intensity (a.u.); that for “GGGGTGCGGGGAGACGCTGGAGGTGGAGCCGGGACTGACGCGGAGTCACCTAGTGCAG”, 3880 fluorescence intensity (a.u.). Consider “TGCCGGAGTCCGTCACCGCGAACACGTCCGCCGAGGCGCACGGAGTCACCTAGTGCAG”, for which the binding signal was 3960 fluorescence intensity (a.u.). The result for “GTAACGTACGACCGTTGTCATCGTAGACGCTTCCCGGATTCGGAGTCACCTAGTGCAG” reads 45700 fluorescence intensity (a.u.); that for “AACGGAGAGGGAGGAGTTGGGATCAATGTGGAGGTCCTTGCGGAGTCACCTAGTGCAG”, 3180 fluorescence intensity (a.u.); that for “AGTACATGAATCCGGATGGATAGGTTCTACCACGTGGAATCGGAGTCACCTAGTGCAG”, 7950 fluorescence intensity (a.u.).

As for “TAATCAAGATGAGAGGTGAGTGATCGATGTACGTTGTTTGCGGAGTCACCTAGTGCAG”, the binding signal is 3560 fluorescence intensity (a.u.). The result for “TATCTGCAAGCATCATCTATTCTTCCAGCGTATAAGTACCCGGAGTCACCTAGTGCAG” reads 3400 fluorescence intensity (a.u.); that for “TGCAAGTTGGGAGTCATGATTTCTGGTATTGCGGTTCAGGCGGAGTCACCTAGTGCAG”, 3680 fluorescence intensity (a.u.).
